# This is one part of the list.
# B1: truncCC1G-10077 (Coprinopsis cinerea) (protein)
# chain: MHHHHHHHHPLPSPGPGWVLIQNGGTGKFLCSTPSGDIGTADGPETVYDYSVQWRFIQREYTGVYHVVNRATGAYLRQIGTSMPSIGLAEENDDELKDWWMLETYDNSEIGLASIISRWTGNVLDHYGGVSVQALDNNTENSYRSWAIIPARDWLTSFSLVNGQGGLCLAAQYAREETRLSTTANVNDFHAQWVFRKPSGSSGYTIQNKYNNHYVGGTSARWELVVCCNKYFGIRNTSTQKYLAIEDGQVTFQDQDMTDRKQCWELCSGRATDTSGNDYDLIYMDDDLLEVMIPWVGDKQGDLKHYIEKRATKKPPKDKGGWQLPAAGLIKKPKFNDIRQLLQELIEQWEWDVVNEEREQIQTLVSIDEAEARRLLGRRPHPDIVAAYQRSRSSTLFRIDRQGYFNIAGDRYVNIQGQYGDDSYFHIALPVGVRFGREQIRRFLRDSLDRSTSVTITPTTCKPPSGGPDYNRDPDSDGDNSWIKWTIAVVGTSAIKHSEL
# Experiments:
# Experiment in all cases: glycan array binding signal (z-score within array); higher = stronger binding
# Details in all cases: glycan notation: IUPAC condensed, linker removed
# [1] = molecular target: Neu5Ac(a2-3)Gal(b1-4)GlcNAc(b1-6)GalNAc
# Method in brief: (§1)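 Negative Z-scores can be read as non-binding. The Z-score is calculated within each array and then averaged across arrays of one protein sequence at different concentrations or buffers and across linkers. Arrays, 3228 in all, were curated from the Consortium for Functional Glycomics database and kept only where the protein sequence was available.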
# [2] = molecular target: Neu5Ac(a2-3)Gal(b1-4)GlcNAc(b1-6)[Gal(b1-3)]GalNAc
# Method in brief: as §1
# [3] = molecular target: Neu5Ac(a2-3)Gal(b1-4)GlcNAc(b1-6)[Neu5Ac(a2-3)Gal(b1-3)]GalNAc
# Method in brief: as §1
# [4] = molecular target: Neu5Ac(a2-3)Gal(b1-4)GlcNAc6S
# Method in brief: as §1
# [5] = molecular target: Neu5Ac(a2-3)Gal(b1-4)[Fuc(a1-3)]GlcNAc
# Method in brief: as §1
# [6] = molecular target: Neu5Ac(a2-3)Gal(b1-4)[Fuc(a1-3)]GlcNAc(b1-2)Man
# Method in brief: as §1
# [7] = molecular target: Neu5Ac(a2-3)Gal(b1-4)[Fuc(a1-3)]GlcNAc(b1-3)Gal
# Method in brief: as §1
# [8] = molecular target: Neu5Ac(a2-3)Gal(b1-4)[Fuc(a1-3)]GlcNAc(b1-3)Gal(b1-4)GlcNAc
# Method in brief: as §1
# [9] = molecular target: Neu5Ac(a2-3)Gal(b1-4)[Fuc(a1-3)]GlcNAc(b1-3)Gal(b1-4)[Fuc(a1-3)]GlcNAc(b1-3)Gal(b1-4)[Fuc(a1-3)]GlcNAc
# Method in brief: as §1
# [10] = molecular target: Neu5Ac(a2-3)Gal(b1-4)[Fuc(a1-3)]GlcNAc(b1-3)GalNAc
# Method in brief: as §1
# [11] = molecular target: Neu5Ac(a2-3)Gal(b1-4)[Fuc(a1-3)]GlcNAc(b1-6)[Gal(b1-3)]GalNAc
# Method in brief: as §1
# [12] = molecular target: Neu5Ac(a2-3)Gal(b1-4)[Fuc(a1-3)]GlcNAc(b1-6)[Neu5Ac(a2-3)Gal(b1-3)]GalNAc
# Method in brief: as §1
# [13] = molecular target: Neu5Ac(a2-3)Gal(b1-4)[Fuc(a1-3)]GlcNAc6S
# Method in brief: as §1
# [14] = molecular target: Neu5Ac(a2-3)Gal6S(b1-4)GlcNAc
# Method in brief: as §1
# [15] = molecular target: Neu5Ac(a2-3)Gal6S(b1-4)[Fuc(a1-3)]GlcNAc
# Method in brief: as §1
# Neu5Ac(a2-3)GalNAc = molecular target: Neu5Ac(a2-3)GalNAc
# Method in brief: as §1
# [16] = molecular target: Neu5Ac(a2-3)GalNAc(b1-4)GlcNAc
# Method in brief: as §1
# [17] = molecular target: Neu5Ac(a2-3)[GalNAc(b1-4)]Gal(b1-4)Glc
# Method in brief: as §1
# [18] = molecular target: Neu5Ac(a2-3)[GalNAc(b1-4)]Gal(b1-4)GlcNAc
# Method in brief: as §1
# [19] = molecular target: Neu5Ac(a2-3)[GalNAc(b1-4)]Gal(b1-4)GlcNAc(b1-3)GalNAc
# Method in brief: as §1
# [20] = molecular target: Neu5Ac(a2-3)[Neu5Ac(a2-6)]GalNAc
# Method in brief: as §1
# Neu5Ac(a2-6)Gal = molecular target: Neu5Ac(a2-6)Gal
# Method in brief: as §1
# [21] = molecular target: Neu5Ac(a2-6)Gal(b1-3)GlcNAc(b1-3)[Gal(b1-4)GlcNAc(b1-6)]Gal(b1-4)Glc
# Method in brief: as §1
# Neu5Ac(a2-6)Gal(b1-4)Glc = molecular target: Neu5Ac(a2-6)Gal(b1-4)Glc
# Method in brief: as §1
# [22] = molecular target: Neu5Ac(a2-6)Gal(b1-4)GlcNAc
# Method in brief: as §1
# [23] = molecular target: Neu5Ac(a2-6)Gal(b1-4)GlcNAc(b1-2)Man
# Method in brief: as §1
# [24] = molecular target: Neu5Ac(a2-6)Gal(b1-4)GlcNAc(b1-2)Man(a1-3)Man(b1-4)GlcNAc(b1-4)GlcNAc
# Method in brief: as §1
# [25] = molecular target: Neu5Ac(a2-6)Gal(b1-4)GlcNAc(b1-2)Man(a1-3)[Gal(b1-4)GlcNAc(b1-2)Man(a1-6)]Man(b1-4)GlcNAc(b1-4)GlcNAc
# Method in brief: as §1
# [26] = molecular target: Neu5Ac(a2-6)Gal(b1-4)GlcNAc(b1-2)Man(a1-3)[GlcNAc(b1-2)Man(a1-6)]Man(b1-4)GlcNAc(b1-4)GlcNAc
# Method in brief: as §1
# [27] = molecular target: Neu5Ac(a2-6)Gal(b1-4)GlcNAc(b1-2)Man(a1-3)[GlcNAc(b1-4)][Neu5Ac(a2-6)Gal(b1-4)GlcNAc(b1-2)Man(a1-6)]Man(b1-4)GlcNAc(b1-4)GlcNAc
# Method in brief: as §1
# [28] = molecular target: Neu5Ac(a2-6)Gal(b1-4)GlcNAc(b1-2)Man(a1-3)[Man(a1-6)]Man(b1-4)GlcNAc(b1-4)GlcNAc
# Method in brief: as §1
binder,measurement,setting,value
B1,glycan array binding signal (z-score),[1],-0.355
same,glycan array binding signal (z-score),[2],-0.304
same,glycan array binding signal (z-score),[3],-0.613
same,glycan array binding signal (z-score),[4],-0.621
same,glycan array binding signal (z-score),[5],-1
same,glycan array binding signal (z-score),[6],0.04
same,glycan array binding signal (z-score),[7],-1.4
same,glycan array binding signal (z-score),[8],0.654
same,glycan array binding signal (z-score),[9],0.128
same,glycan array binding signal (z-score),[10],0.937
same,glycan array binding signal (z-score),[11],0.788
same,glycan array binding signal (z-score),[12],3.72
same,glycan array binding signal (z-score),[13],0.867
same,glycan array binding signal (z-score),[14],-0.44
same,glycan array binding signal (z-score),[15],-0.931
same,glycan array binding signal (z-score),Neu5Ac(a2-3)GalNAc,-1.31
same,glycan array binding signal (z-score),[16],-0.586
same,glycan array binding signal (z-score),[17],-1.1
same,glycan array binding signal (z-score),[18],-0.926
same,glycan array binding signal (z-score),[19],2.23
same,glycan array binding signal (z-score),[20],-0.289
same,glycan array binding signal (z-score),Neu5Ac(a2-6)Gal,-0.7
same,glycan array binding signal (z-score),[21],-0.784
same,glycan array binding signal (z-score),Neu5Ac(a2-6)Gal(b1-4)Glc,-0.224
same,glycan array binding signal (z-score),[22],-0.58
same,glycan array binding signal (z-score),[23],-0.162
same,glycan array binding signal (z-score),[24],-0.073
same,glycan array binding signal (z-score),[25],-0.92
same,glycan array binding signal (z-score),[26],-0.318
same,glycan array binding signal (z-score),[27],-0.079
same,glycan array binding signal (z-score),[28],0.481

# Part of the list above, reformatted:
binder | measurement | setting | value
B1 | glycan array binding signal (z-score) | [13] | 0.867
same | glycan array binding signal (z-score) | [20] | -0.289

# Reference: the supplement of paper PMC8728848
